According to US12648936B2 (NOVARTIS AG, priority 2019, dated 2026):
Some results were stated once for a whole list of compounds, not compound by compound.

Test system: S6K1(Thr389) phosphorylation (mTORC1 activity) in wild-type 293T cells
Experiment: pS6K1(Thr389) sandwich ELISA in wild-type 293T cells
Assay type: cell-based
Details: 2 hours, dose range 1000 nM to 0.0033 nM, relative to DMSO media (FIG. 1A)

For CO[C@@H]1C[C@H](C[C@@H](C)[C@@H]2CC(=O)[C@H](C)/C=C(\C)[C@@H](O)[C@@H](OC)C(=O)[C@H](C)C[C@H](C)/C=C/C=C/C=C(\C)C(N3CCCS3(=O)=O)C[C@@H]3CC[C@@H](C)[C@@](O)(O3)C(=O)C(=O)N3CCCC[C@H]3C(=O)O2)CC[C@H]1O (stereo partly shown) [Compound 1], the “inhibition of S6K1(Thr389) phosphorylation” value was 70-80%.
